Drawing on doi:10.1101/2024.08.29.610189 (bioRxiv, 2024), this text covers binding for 1 molecule.

This assay deals with T1, Atg12–Atg5 conjugate with Atg5–FLAG, in yeast cells (S. cerevisiae) (UniProt Q12380+P38316).
T1 sequence (chain, Atg12–Atg5 protein conjugate | Atg12–Atg5 protein conjugate) 1: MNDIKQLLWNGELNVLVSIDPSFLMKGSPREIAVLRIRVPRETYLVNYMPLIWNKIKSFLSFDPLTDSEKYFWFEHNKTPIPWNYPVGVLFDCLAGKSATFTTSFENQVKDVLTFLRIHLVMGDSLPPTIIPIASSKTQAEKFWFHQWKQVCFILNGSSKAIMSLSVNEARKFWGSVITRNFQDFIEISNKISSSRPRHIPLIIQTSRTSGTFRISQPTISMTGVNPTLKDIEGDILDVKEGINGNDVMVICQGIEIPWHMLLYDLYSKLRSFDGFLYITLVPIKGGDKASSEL
T1 sequence (chain, Atg12–Atg5 protein conjugate | Atg12–Atg5 protein conjugate) 2: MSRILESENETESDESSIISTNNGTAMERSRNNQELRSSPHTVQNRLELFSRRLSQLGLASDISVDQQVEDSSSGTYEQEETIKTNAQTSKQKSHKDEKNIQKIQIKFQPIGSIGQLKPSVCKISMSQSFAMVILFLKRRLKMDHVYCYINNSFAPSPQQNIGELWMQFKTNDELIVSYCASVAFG
Put plainly: co-IP.

Results are given in words; binding and its absence hold for the method and conditions named. In cells and extracts the contact can be indirect. Some entries that bind do so weakly or less than the wild type. Where a sequence is shown, tags or fusion partners need not be part of it.

B1: Atg17, wild type, expressed in yeast from a pRS316-derived plasmid (protein, UniProt Q06410 1-417)
chain: MNEADVTKFVNNARKTLTDAQLLCSSANLRIVDIKKKLSSWQLSISKLNFLIVGLRQQGKFLYTILKEGIGTKLIQKQWNQAVLVVLVDEMKYWQYEITSKVQRLDGIVNELSISEKDDTDPSKLGDYISRDNVNLLNDKLKEVPVIERQIENIKLQYENMVRKVNKELIDTKLTDVTQKFQSKFGIDNLMETNVAEQFSRELTDLEKDLAEIMNSLTQHFDKTLLLQDKKIDNDEREELFKVVQGDDKELYNIFKTLHEVIDDVDKTILNLGQFLQAKIKEKTELHSEVSEIINDFNRNLEYLLIFKDISNLIDSFKNSCTQDIQTTKELCEFYDNFEESYGNLVLEAKRRKDVANRMKTILKDCEKQLQNLDAQDQEERQNFIAENGTYLPETIWPGKIDDFSSLYTLNYNVKNP
For the molecule B1, the binding entry is on record as “binds”.
